PubChem BioAssay AID686938, Drosophila RNAi Screening Center, 2013

Assay: 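Knock-downs reducing store-operated calcium influx in Drosophila cells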 (primary screen)
System: Drosophila S2R+ cells
Reagents: long dsRNA against Drosophila genes, about 0.25 µg dsRNA per well, roughly 10,000 cells
Timing: 5 days of knock-down before the calcium assay
Conditions: thapsigargin (SERCA pump blocker) to empty calcium stores; entry signal taken 4 min after adding it
Measurement: 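Duplicate raw fluo-4 intensities per well from a plate reader, at rest and four minutes after thapsigargin emptied calcium stores; entry-to-rest ratio filled for only some wells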
Direction: calcium entry signal: higher = stronger calcium signal after store depletion; entry to resting ratio: higher = more calcium entry relative to resting level; resting calcium signal: higher = higher resting calcium signal
Call rule: 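Hit if the duplicate-averaged plate z-score for entry over resting signal is under −3; wells with weak total dye signal (Fmax z < −2) or more than 5 off-targets removed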
Calls: active = strongly reduced calcium entry; inactive = no strong reduction
The deposit covers about 23,000 reagents; below is a random part of those with a known target gene and a result. Of all reagents, 75 (0.33%) got an active call. 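Raw plate signals without normalisation; calls rest on plate z-scores that were not deposited; ratio present for only 364 wells.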 Reagents against one gene are numbered here. A plus sign joins genes that one reagent is predicted to hit. Reagent sequences are not shown. Not stated in the record: the dose of the treatment.

Gene	reagent	calcium entry signal, replicate 1 (fluorescence units)	calcium entry signal, replicate 2 (fluorescence units)	entry to resting ratio	resting calcium signal, replicate 1 (fluorescence units)	resting calcium signal, replicate 2 (fluorescence units)	call
CG8993	1	3.61e7	3.80e7		1.76e7	1.76e7	inactive
CG8509	1	3.81e7	4.49e7		1.80e7	1.94e7	inactive
Jon25Bi	1	3.95e7	3.39e7		1.86e7	1.69e7	inactive
CG12546 + CG14452	1	2.08e7	2.97e7		1.01e7	1.43e7	inactive
Rab23	1	4.48e7	3.88e7		2.18e7	1.93e7	inactive
CG11951	1	3.10e7	4.40e7		1.64e7	1.87e7	inactive
CG12355	1	5.13e7	3.25e7		2.57e7	1.63e7	inactive
CG12355	2	3.65e7	5.67e7		1.83e7	2.25e7	inactive
Grd	1	3.47e7	5.15e7		1.77e7	1.99e7	inactive
Klp3A	1	5.03e7	4.81e7		2.14e7	2.13e7	inactive
Klp3A	2	3.93e7	4.02e7		2.19e7	1.78e7	inactive
CG15118	1	2.98e7	2.57e7		1.45e7	1.34e7	inactive
CG3740	1	3.46e7	5.07e7	2	1.71e7	2.03e7	inactive
Vago	1	2.95e7	4.34e7		1.56e7	1.94e7	inactive
CG14659	1	2.62e7	5.93e7		1.38e7	2.47e7	inactive
CG30109	1	3.57e7	4.95e7		1.70e7	2.55e7	inactive
CG7653	1	5.12e7	4.02e7		2.24e7	1.69e7	inactive
r	1	2.25e7	3.51e7		1.19e7	1.57e7	inactive
r	2	2.21e7	2.70e7		1.22e7	1.39e7	inactive
CG4230	1	4.16e7			2.08e7		inactive
CG11382	1	3.65e7	5.94e7	2.2	1.67e7	2.57e7	inactive
CG7824	1	3.85e7	5.10e7		2.03e7	2.14e7	inactive
PMCA	1	2.46e7	3.53e7		1.17e7	1.39e7	inactive
PMCA	2	2.12e7	2.50e7		1.32e7	1.48e7	inactive
PMCA	3	4.89e7	4.07e7		4.03e7	3.21e7	inactive
CG32445	1	3.13e7	5.06e7		1.53e7	2.32e7	inactive
RpS5b	1	2.72e7	5.28e7		1.52e7	6.48e7	inactive
CG13501	1	4.51e7	5.43e7		2.25e7	2.27e7	inactive
Su(Tpl)	1	3.34e7	3.61e7		1.42e7	2.15e7	inactive
topi	1	4.02e7	4.27e7		1.95e7	2.47e7	inactive
l(3)L1231	1	2.70e7	4.22e7		1.34e7	1.77e7	inactive
BHD	1	4.50e7	2.86e7		3.06e7	1.29e7	inactive
BHD	2	3.21e7	3.91e7		1.68e7	1.81e7	inactive
Nepl8	1	5.02e7	2.95e7		2.25e7	1.51e7	inactive
CG9967	1	3.51e7	8.77e7		1.91e7	3.52e7	inactive
al	1	4.07e7	3.72e7		1.95e7	1.80e7	inactive
Obp49a	1	4.28e7	3.49e7		2.01e7	1.44e7	inactive
CG30485	1	3.51e7	4.10e7		1.86e7	1.85e7	inactive
wek	1	4.22e7			2.21e7		inactive
rk	1	4.83e7	2.95e7		2.14e7	1.44e7	inactive
Send2	1	4.21e7	3.42e7		1.96e7	1.68e7	inactive
CG6106	1	4.34e7	3.93e7		2.21e7	1.70e7	inactive
Tao	1	2.88e7	9.52e7		1.41e7	4.12e7	inactive
Tao	2	3.29e7	4.09e7		1.99e7	2.09e7	inactive
Tao	3	4.08e7	4.14e7		2.46e7	1.97e7	inactive
CG13230	1	1.72e7	3.11e7		1.01e7	1.40e7	inactive
CG31036	1	3.73e7	5.83e7		1.85e7	2.33e7	inactive
CG31036	2	4.11e7	6.36e7		1.99e7	2.66e7	inactive
CG11170	1	3.18e7			1.64e7		inactive
sau	1	3.80e7			1.68e7		inactive
Mlc-c	1	2.66e7	2.73e7		1.23e7	1.32e7	inactive
S-Lap4	1	1.45e7	2.02e7		8.76e6	9.47e6	inactive
lncRNA:CR34046	1	4.94e7	4.05e7		2.71e7	1.70e7	inactive
CG33178	1	4.26e7	3.32e7		2.09e7	1.39e7	inactive
CG15347	1	3.64e7	5.46e7		1.87e7	2.45e7	inactive
Zif	1	4.07e7	4.89e7		1.72e7	1.93e7	inactive
vret	1	4.86e7	3.96e7		2.19e7	1.73e7	inactive
CG17187	1	2.91e7	2.34e7		1.56e7	1.34e7	inactive

Reformatted: 5 of the entries above.
Gene,reagent,"calcium entry signal, replicate 1 (fluorescence units)","calcium entry signal, replicate 2 (fluorescence units)",entry to resting ratio,"resting calcium signal, replicate 1 (fluorescence units)","resting calcium signal, replicate 2 (fluorescence units)",call
BHD,2,3.21e7,3.91e7,,1.68e7,1.81e7,inactive
Nepl8,1,5.02e7,2.95e7,,2.25e7,1.51e7,inactive
CG9967,1,3.51e7,8.77e7,,1.91e7,3.52e7,inactive
al,1,4.07e7,3.72e7,,1.95e7,1.80e7,inactive
Obp49a,1,4.28e7,3.49e7,,2.01e7,1.44e7,inactive
